Positions count from the first letter of the chain named. Names may count otherwise. These are yes or no findings as the source states them, for the method shown. For some of these results: Binding seen in cells or lysates may run through a third protein. Some entries that bind do so weakly or less than the wild type. For some of these results: Tags and fused reporters may be left off the sequences shown.

Chains of the proteins cited; added tags and fusions are not shown.
UniProt P45481: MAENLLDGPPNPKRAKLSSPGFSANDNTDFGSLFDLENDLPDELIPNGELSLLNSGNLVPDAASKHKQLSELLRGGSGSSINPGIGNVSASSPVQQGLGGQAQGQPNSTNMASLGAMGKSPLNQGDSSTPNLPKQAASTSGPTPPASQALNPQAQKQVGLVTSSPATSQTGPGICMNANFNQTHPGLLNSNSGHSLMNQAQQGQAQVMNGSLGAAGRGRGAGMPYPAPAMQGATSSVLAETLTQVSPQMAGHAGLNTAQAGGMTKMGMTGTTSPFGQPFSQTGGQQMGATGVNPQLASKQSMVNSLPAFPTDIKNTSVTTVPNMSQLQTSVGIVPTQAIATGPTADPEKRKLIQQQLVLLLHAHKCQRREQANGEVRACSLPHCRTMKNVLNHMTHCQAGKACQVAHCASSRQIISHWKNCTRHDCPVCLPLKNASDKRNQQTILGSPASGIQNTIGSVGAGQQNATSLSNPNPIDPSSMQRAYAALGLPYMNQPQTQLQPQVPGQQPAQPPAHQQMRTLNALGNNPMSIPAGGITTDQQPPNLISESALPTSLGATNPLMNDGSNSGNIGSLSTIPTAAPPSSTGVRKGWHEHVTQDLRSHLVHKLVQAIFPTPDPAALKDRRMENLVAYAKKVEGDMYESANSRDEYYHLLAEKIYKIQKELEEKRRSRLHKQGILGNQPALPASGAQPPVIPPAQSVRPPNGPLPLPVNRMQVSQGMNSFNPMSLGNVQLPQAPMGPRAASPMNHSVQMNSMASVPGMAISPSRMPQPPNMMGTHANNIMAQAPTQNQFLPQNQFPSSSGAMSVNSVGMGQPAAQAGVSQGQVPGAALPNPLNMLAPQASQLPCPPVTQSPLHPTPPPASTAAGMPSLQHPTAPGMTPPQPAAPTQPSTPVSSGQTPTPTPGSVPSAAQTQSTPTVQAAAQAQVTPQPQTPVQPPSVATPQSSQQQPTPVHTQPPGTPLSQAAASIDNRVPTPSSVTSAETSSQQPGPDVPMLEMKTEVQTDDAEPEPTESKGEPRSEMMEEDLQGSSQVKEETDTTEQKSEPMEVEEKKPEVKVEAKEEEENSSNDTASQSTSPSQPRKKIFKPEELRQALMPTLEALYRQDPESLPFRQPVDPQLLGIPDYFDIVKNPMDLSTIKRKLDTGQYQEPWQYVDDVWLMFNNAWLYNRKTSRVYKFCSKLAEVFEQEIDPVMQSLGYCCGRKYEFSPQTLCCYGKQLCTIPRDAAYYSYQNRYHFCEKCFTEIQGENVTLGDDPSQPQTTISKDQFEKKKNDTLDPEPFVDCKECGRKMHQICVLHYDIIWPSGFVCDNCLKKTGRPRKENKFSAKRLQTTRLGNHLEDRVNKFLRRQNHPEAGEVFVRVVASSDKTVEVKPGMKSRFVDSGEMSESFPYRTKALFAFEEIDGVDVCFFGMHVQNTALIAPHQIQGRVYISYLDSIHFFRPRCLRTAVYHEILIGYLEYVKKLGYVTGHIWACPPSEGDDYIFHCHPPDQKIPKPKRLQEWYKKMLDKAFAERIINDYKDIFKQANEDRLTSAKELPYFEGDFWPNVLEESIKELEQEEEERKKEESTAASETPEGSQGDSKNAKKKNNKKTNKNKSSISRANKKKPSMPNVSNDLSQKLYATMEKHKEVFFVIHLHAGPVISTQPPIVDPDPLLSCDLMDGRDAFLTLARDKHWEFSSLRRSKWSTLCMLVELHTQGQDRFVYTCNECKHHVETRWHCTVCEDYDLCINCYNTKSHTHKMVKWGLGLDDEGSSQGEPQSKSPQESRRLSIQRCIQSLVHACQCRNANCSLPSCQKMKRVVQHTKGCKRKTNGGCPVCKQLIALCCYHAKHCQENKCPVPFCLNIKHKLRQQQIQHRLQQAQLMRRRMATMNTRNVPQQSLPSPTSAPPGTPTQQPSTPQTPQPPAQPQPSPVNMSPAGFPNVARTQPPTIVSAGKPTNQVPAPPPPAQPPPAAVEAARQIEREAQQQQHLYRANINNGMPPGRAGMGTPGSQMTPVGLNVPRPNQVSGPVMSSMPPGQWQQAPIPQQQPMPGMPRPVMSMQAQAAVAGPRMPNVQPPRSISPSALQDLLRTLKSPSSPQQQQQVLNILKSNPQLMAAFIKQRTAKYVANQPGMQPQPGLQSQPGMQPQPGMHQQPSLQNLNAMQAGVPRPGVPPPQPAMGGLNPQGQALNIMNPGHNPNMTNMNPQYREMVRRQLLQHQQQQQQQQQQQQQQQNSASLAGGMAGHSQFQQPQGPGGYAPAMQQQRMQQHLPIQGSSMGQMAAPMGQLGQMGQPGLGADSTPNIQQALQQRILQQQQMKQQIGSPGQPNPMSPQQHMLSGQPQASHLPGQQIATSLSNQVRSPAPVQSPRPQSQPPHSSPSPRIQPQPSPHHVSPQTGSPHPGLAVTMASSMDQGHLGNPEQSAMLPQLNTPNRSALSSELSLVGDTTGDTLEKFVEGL

The target in assay [1] is T1, IRF3, endogenous in MEFs (mouse (endogenous in MEFs)) (UniProt P70671).
T1 sequence: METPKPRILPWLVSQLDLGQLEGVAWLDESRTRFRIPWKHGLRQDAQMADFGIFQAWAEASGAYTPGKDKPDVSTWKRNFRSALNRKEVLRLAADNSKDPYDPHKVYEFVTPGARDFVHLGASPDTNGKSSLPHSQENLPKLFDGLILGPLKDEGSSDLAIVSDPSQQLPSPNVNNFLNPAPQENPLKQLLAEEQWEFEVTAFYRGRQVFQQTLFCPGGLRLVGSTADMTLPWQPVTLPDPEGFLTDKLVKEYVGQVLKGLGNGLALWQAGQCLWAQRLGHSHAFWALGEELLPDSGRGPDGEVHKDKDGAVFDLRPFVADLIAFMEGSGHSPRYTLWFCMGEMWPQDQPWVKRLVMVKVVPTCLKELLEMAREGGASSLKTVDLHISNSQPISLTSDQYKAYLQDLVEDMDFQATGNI
In words: co-IP; endogenous proteins; WT and Parp7-/- MEFs stimulated with DMXAA (10 μg/ml) for the indicated time points; IP with IRF3 antibody; blotted.

Assay [2] addresses T2, HA-IRF3 (IFN regulatory factor 3) (UniProt Q14653).
T2 sequence: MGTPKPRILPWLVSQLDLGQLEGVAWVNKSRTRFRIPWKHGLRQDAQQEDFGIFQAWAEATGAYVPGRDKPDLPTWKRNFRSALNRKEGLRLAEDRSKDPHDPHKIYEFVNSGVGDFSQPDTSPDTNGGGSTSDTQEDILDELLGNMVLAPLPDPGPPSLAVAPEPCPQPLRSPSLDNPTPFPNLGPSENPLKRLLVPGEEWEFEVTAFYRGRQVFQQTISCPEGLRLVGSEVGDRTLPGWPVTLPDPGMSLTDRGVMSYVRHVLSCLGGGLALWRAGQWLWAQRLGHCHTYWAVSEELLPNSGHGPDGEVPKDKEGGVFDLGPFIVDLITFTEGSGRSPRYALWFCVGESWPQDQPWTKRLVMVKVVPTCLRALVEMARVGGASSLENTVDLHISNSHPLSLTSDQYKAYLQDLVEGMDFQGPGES
Description: co-IP; HEK293T co-transfected with HA-IRF3 or HA-IRF3-5D and EGFP-PARP7 constructs; IP with HA antibody on Protein G or A Dynabeads overnight at 4°C; IP lysis buffer 20 mM Tris-HCl pH 7.4, 0.5% Nonidet-P40, 150 mM NaCl, 1 μM veliparib; blotted.

Assay [3] addresses T3, IRF3, endogenous in MEFs (mouse (endogenous in MEFs)), P70671.
T3 chain: T1 sequence
In words: native gel or EMSA; Native-PAGE of lysates of WT and Parp7-/- MEFs stimulated with DMXAA (10 μg/ml); inner buffer with 1% sodium deoxycholate; blotted for IRF3. To be noted: remark: other sources report otherwise.

As for “CREB-binding protein (CBP), endogenous in MEFs (from UniProt P45481 1-2441)”, the binding entry in assay [1] was “binds”.

B1: EGFP-PARP7 (enzyme, UniProt Q7Z3E1 1-657)
chain: MEMETTEPEPDCVVQPPSPPDDFSCQMRLSEKITPLKTCFKKKDQKRLGTGTLRSLRPILNTLLESGSLDGVFRSRNQSTDENSLHEPMMKKAMEINSSCPPAENNMSVLIPDRTNVGDQIPEAHPSTEAPERVVPIQDHSFPSETLSGTVADSTPAHFQTDLLHPVSSDVPTSPDCLDKVIDYVPGIFQENSFTIQYILDTSDKLSTELFQDKSEEASLDLVFELVNQLQYHTHQENGIEICMDFLQGTCIYGRDCLKHHTVLPYHWQIKRTTTQKWQSVFNDSQEHLERFYCNPENDRMRMKYGGQEFWADLNAMNVYETTEFDQLRRLSTPPSSNVNSIYHTVWKFFCRDHFGWREYPESVIRLIEEANSRGLKEVRFMMWNNHYILHNSFFRREIKRRPLFRSCFILLPYLQTLGGVPTQAPPPLEATSSSQIICPDGVTSANFYPETWVYMHPSQDFIQVPVSAEDKSYRIIYNLFHKTVPEFKYRILQILRVQNQFLWEKYKRKKEYMNRKMFGRDRIINERHLFHGTSQDVVDGICKHNFDPRVCGKHATMFGQGSYFAKKASYSHNFSKKSSKGVHFMFLAKVLTGRYTMGSHGMRRPPPVNPGSVTSDLYDSCVDNFFEPQIFVIFNDDQSYPYFVIQYEEVSNTVSI
B1: the binding entry in assay [2] is “binds”.

B2: EGFP-PARP7-H532A (enzyme, UniProt Q7Z3E1 1-657)
chain: B1 chain with H532A
Regarding B2, the binding entry in assay [2] is “binds”.

B3: IRF3, endogenous in MEFs, P70671 1-419 (protein)
chain: T1 sequence
For B3, the binding entry in assay [3] is “binds”.

For the origin of these results see article PMC11837972.
